Assay results taken from paper PMC9339186.
These are yes or no findings as the source states them, for the method shown. Binding seen in cells or lysates may run through a third protein. Here binding means that the protein was enriched with, or labelled near, the bait; the list need not be complete.

Target: T1, TRIM18 (endogenous, mouse bone marrow-derived macrophages) (mouse (endogenous in BMDM)) (UniProt O70583)
T1 sequence: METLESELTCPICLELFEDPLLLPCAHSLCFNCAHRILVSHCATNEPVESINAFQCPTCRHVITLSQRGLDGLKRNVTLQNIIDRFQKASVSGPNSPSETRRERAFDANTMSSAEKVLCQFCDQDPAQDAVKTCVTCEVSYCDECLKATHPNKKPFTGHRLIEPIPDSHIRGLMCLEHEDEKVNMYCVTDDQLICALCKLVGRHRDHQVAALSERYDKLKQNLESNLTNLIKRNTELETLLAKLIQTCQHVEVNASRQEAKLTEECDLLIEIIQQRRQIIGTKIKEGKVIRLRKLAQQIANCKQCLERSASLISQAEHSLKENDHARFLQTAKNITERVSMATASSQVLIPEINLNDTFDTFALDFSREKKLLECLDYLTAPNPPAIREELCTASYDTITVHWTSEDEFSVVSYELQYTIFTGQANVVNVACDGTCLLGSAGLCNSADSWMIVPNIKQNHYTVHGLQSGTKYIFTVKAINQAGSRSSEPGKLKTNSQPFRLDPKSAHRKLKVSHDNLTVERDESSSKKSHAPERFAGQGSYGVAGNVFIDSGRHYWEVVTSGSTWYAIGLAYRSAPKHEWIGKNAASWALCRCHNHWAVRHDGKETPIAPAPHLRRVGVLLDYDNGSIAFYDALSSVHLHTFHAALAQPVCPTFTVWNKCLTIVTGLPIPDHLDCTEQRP
Assay: affinity purification with mass spectrometry; immunoprecipitation with an antibody specific to TRIM18 from lysates of BMDM, protein sequencing by liquid chromatography-mass spectrometry

B1: protein phosphatase, magnesium-dependent 1A (PPM1A; endogenous, mouse bone marrow-derived macrophages) (enzyme, UniProt P49443 1-382)
chain: MGAFLDKPKMEKHNAQGQGNGLRYGLSSMQGWRVEMEDAHTAVIGLPSGLETWSFFAVYDGHAGSQVAKYCCEHLLDHITNNQDFRGSAGAPSVENVKNGIRTGFLEIDEHMRVMSEKKHGADRSGSTAVGVLISPQHTYFINCGDSRGLLCRNRKVHFFTQDHKPSNPLEKERIQNAGGSVMIQRVNGSLAVSRALGDFDYKCVHGKGPTEQLVSPEPEVHDIERSEEDDQFIILACDGIWDVMGNEELCDFVRSRLEVTDDLEKVCNEVVDTCLYKGSRDNMSVILICFPSAPKVSAEAVKKEAELDKYLESRVEEIIKKQVEGVPDLVHVMRTLASENIPSLPPGGELASKRNVIEAVYNRLNPYKNDDTDSASTDDMW
For B1, which binding is on record?
The binding was “binds”.
